Where two headings read alike, the source gives them in different places. No constants are given. Whether binding was seen depends on the method and setting. For part of these data: In cells and extracts the contact can be indirect. Some binding calls cover weakened binding; strength is not graded here. For part of these data: Tags and fused reporters may be left off the sequences shown. Each block holds one molecule with its values, some of them ahead of it.
How the values were obtained:
[1] = target: T1, TTL3-cYFP (Arabidopsis thaliana) (UniProt Q9SIN1); assay: split reporter
T1 sequence: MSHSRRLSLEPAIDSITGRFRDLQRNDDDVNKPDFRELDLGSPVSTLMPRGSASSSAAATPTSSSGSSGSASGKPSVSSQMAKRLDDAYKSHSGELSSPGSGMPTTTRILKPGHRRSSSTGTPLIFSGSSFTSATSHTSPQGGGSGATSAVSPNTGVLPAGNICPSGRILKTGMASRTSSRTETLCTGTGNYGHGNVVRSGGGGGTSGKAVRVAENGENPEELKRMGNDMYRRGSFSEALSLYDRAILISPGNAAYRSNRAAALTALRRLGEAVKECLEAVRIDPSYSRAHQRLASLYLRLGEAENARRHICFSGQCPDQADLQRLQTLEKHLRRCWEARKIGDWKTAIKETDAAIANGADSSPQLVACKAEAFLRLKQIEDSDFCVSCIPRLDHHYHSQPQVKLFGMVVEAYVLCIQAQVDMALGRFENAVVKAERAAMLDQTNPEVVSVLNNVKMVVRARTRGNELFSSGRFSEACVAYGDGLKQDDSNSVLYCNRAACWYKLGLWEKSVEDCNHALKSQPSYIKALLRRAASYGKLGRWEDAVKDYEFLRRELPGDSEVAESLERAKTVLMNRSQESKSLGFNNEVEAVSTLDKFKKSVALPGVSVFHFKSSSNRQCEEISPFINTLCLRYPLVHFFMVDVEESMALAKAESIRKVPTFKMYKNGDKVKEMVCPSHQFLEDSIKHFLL

Chains of the proteins cited; added tags and fusions are not shown. Residues count along the entry.
UniProt Q8S307: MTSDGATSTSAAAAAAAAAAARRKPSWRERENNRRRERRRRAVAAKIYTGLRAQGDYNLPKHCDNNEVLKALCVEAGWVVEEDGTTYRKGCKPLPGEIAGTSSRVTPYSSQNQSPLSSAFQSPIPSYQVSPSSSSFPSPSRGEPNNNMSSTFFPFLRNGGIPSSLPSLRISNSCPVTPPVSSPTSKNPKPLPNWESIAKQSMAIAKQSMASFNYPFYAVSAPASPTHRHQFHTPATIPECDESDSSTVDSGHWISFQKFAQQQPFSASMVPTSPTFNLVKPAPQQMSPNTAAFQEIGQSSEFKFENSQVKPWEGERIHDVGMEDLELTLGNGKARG
UniProt Q944A7: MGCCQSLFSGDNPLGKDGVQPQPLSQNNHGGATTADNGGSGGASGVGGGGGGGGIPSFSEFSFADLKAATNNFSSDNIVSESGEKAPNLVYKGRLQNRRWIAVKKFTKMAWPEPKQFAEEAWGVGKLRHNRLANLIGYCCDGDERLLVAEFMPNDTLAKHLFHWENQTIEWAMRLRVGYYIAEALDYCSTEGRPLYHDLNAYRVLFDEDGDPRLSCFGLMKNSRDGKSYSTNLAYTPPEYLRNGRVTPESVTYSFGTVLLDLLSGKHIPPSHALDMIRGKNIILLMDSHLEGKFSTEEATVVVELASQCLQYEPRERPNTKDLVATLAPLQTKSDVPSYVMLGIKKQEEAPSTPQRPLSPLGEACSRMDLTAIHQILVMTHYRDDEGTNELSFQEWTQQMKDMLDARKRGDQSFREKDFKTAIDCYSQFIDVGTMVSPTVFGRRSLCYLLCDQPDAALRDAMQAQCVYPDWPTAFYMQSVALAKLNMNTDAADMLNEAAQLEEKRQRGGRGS
UniProt O22476, residues 24-1196: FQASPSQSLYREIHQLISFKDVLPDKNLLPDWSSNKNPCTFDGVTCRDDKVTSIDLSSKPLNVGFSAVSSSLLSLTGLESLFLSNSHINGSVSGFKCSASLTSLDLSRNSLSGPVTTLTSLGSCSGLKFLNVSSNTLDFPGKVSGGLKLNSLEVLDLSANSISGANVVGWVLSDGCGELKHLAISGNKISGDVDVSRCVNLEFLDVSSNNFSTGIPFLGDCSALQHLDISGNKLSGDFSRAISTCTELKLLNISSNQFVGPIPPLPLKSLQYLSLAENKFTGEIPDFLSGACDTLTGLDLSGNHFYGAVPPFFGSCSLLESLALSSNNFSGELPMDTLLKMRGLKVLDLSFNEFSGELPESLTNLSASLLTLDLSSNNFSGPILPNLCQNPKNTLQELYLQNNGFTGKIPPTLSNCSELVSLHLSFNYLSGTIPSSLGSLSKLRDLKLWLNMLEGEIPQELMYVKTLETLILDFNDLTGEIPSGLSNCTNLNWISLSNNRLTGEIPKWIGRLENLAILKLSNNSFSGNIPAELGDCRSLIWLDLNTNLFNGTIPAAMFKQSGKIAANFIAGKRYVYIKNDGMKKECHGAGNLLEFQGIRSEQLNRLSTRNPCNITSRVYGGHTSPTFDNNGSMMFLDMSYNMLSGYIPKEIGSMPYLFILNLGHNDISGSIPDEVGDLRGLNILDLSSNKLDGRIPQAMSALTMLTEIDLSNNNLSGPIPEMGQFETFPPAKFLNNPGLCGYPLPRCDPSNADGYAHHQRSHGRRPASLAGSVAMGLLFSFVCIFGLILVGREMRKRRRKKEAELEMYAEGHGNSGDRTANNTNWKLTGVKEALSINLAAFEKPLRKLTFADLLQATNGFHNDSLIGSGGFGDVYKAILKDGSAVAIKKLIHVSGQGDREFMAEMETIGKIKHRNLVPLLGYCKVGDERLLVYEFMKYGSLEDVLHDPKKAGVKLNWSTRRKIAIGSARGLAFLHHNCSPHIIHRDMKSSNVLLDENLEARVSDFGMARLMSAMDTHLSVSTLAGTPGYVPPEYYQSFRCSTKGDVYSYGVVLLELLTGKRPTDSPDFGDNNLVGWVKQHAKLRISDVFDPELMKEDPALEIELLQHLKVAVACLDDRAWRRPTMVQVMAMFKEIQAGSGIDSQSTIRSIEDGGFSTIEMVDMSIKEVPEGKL
UniProt Q9LR78: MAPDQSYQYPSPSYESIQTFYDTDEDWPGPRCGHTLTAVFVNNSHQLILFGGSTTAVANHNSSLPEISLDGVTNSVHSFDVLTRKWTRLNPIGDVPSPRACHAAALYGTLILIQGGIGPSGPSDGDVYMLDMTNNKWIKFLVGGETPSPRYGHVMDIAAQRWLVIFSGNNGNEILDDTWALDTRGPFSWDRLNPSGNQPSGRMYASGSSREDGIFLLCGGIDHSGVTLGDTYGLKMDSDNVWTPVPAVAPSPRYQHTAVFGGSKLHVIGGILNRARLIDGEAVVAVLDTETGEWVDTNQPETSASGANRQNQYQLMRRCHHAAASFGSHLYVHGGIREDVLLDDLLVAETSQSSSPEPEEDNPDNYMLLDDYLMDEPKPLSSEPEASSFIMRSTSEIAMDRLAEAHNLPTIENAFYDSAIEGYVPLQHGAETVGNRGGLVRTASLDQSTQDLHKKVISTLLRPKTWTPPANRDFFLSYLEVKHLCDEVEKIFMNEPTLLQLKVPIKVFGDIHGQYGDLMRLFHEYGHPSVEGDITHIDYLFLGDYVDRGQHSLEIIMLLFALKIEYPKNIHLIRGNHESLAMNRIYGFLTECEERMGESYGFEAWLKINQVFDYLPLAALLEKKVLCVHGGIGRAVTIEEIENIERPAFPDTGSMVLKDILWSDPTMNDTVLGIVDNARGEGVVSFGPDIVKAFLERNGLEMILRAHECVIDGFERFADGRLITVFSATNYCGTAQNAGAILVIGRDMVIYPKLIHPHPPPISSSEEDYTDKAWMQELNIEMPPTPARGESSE

[2] = target: BZR1-GFP (Arabidopsis thaliana) (UniProt Q8S307); assay: co-IP
[3] = target: T2, GFP-TTL3 full length (Arabidopsis thaliana) (UniProt Q9SIN1); assay: co-IP
T2 sequence: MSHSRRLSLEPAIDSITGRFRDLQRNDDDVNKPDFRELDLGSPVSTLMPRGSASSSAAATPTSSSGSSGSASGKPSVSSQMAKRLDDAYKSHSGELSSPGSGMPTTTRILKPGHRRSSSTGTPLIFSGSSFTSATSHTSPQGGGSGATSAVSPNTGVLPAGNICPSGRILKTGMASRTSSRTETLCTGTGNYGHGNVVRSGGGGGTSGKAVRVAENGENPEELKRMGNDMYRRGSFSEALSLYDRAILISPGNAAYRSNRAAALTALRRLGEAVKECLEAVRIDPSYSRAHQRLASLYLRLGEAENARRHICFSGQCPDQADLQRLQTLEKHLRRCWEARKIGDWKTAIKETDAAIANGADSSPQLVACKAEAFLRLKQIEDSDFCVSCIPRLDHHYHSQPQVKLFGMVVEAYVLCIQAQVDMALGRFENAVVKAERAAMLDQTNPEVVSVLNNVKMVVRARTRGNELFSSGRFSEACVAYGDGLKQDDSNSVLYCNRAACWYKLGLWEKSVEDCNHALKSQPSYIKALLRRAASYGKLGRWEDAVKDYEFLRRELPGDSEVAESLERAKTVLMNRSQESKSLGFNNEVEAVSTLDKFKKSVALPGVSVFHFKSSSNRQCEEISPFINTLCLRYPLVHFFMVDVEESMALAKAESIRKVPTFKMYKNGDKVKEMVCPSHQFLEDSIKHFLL

[4] = target: BSK1-nYFP (Arabidopsis thaliana) (UniProt Q944A7); assay: split reporter
[5] = target: T3, TTL3-nYFP (Arabidopsis thaliana) (UniProt Q9SIN1); assay: split reporter
T3 sequence: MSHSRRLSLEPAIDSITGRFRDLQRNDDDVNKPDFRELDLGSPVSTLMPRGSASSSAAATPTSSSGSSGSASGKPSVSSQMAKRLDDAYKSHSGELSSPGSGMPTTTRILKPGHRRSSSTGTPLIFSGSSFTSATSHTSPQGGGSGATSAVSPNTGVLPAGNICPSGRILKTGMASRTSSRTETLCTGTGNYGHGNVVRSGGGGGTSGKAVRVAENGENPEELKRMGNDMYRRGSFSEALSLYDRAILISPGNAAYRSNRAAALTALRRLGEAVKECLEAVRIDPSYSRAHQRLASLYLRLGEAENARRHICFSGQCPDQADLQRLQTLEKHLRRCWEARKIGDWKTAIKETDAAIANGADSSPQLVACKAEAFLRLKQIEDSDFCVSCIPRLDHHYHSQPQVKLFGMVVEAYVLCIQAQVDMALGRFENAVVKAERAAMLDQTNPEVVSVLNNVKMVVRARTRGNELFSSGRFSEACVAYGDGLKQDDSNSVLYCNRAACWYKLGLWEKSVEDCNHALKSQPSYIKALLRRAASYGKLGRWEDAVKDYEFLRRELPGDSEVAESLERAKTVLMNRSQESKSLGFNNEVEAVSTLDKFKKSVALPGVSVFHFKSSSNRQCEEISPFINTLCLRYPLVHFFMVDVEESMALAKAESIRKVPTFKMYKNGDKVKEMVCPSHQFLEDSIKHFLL

[6] = target: T4, TTL3-GFP (N. benthamiana) (Arabidopsis thaliana) (UniProt Q9SIN1); assay: co-IP
T4 sequence: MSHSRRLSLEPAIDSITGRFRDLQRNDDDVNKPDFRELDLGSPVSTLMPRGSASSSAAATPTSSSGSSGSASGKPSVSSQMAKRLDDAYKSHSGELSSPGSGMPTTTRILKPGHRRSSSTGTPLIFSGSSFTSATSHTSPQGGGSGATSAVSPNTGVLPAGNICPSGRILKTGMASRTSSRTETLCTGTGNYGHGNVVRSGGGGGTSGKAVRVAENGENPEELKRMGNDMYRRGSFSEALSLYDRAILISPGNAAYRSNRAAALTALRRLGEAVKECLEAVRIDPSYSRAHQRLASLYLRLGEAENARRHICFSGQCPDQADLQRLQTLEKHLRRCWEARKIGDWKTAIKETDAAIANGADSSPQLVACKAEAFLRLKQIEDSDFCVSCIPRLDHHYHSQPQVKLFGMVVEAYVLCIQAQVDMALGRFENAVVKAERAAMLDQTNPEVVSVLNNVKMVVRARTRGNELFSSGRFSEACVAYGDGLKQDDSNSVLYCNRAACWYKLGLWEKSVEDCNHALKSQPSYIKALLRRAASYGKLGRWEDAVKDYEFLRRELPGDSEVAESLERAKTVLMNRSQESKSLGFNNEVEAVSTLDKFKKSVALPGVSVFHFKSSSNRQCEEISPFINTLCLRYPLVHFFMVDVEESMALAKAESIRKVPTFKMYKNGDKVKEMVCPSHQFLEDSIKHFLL

[7] = target: BRI1-GFP (Arabidopsis thaliana) (UniProt O22476); assay: co-IP
[8] = target: BD-BZR1 (Arabidopsis thaliana) (UniProt Q8S307); assay: two-hybrid
[9] = target: T4, TTL3-GFP (N. benthamiana) (Arabidopsis thaliana); assay: co-IP; remark: listed apart in the source

binding [1]: binds
Molecule: BRI1-nYFP (from UniProt O22476 24-1196) (receptor)

binding [4]: binds
binding [5]: binds
Molecule: BSU1-cYFP (from UniProt Q9LR78 1-793) (enzyme)

binding [3]: binds
binding [6]: binds
Molecule: BSU1-HA (from UniProt Q9LR78 1-793) (enzyme)

binding [4]: binds
binding [5]: binds
Molecule: BRI1-cYFP (from UniProt O22476 24-1196) (receptor)

binding [8]: binds
B2: TTL3ΔN1 (yeast two-hybrid fusion) (domain or fragment, UniProt Q9SIN1 204-691)
chain: GGTSGKAVRVAENGENPEELKRMGNDMYRRGSFSEALSLYDRAILISPGNAAYRSNRAAALTALRRLGEAVKECLEAVRIDPSYSRAHQRLASLYLRLGEAENARRHICFSGQCPDQADLQRLQTLEKHLRRCWEARKIGDWKTAIKETDAAIANGADSSPQLVACKAEAFLRLKQIEDSDFCVSCIPRLDHHYHSQPQVKLFGMVVEAYVLCIQAQVDMALGRFENAVVKAERAAMLDQTNPEVVSVLNNVKMVVRARTRGNELFSSGRFSEACVAYGDGLKQDDSNSVLYCNRAACWYKLGLWEKSVEDCNHALKSQPSYIKALLRRAASYGKLGRWEDAVKDYEFLRRELPGDSEVAESLERAKTVLMNRSQESKSLGFNNEVEAVSTLDKFKKSVALPGVSVFHFKSSSNRQCEEISPFINTLCLRYPLVHFFMVDVEESMALAKAESIRKVPTFKMYKNGDKVKEMVCPSHQFLEDSIKHFLL

binding [9]: no binding
B4: BAK1*-DK (dead kinase D416N) (receptor, UniProt Q94F62 26-615)
chain: NAEGDALSALKNSLADPNKVLQSWDATLVTPCTWFHVTCNSDNSVTRVDLGNANLSGQLVMQLGQLPNLQYLELYSNNITGTIPEQLGNLTELVSLDLYLNNLSGPIPSTLGRLKKLRFLRLNNNSLSGEIPRSLTAVLTLQVLDLSNNPLTGDIPVNGSFSLFTPISFANTKLTPLPASPPPPISPTPPSPAGSNRITGAIAGGVAAGAALLFAVPAIALAWWRRKKPQDHFFDVPAEEDPEVHLGQLKRFSLRELQVASDNFSNKNILGRGGFGKVYKGRLADGTLVAVKRLKEERTQGGELQFQTEVEMISMAVHRNLLRLRGFCMTPTERLLVYPYMANGSVASCLRERPESQPPLDWPKRQRIALGSARGLAYLHDHCDPKIIHRNVKAANILLDEEFEAVVGDFGLAKLMDYKDTHVTTAVRGTIGHIAPEYLSTGKSSEKTDVFGYGVMLLELITGQRAFDLARLANDDDVMLLDWVKGLLKEKKLEALVDVDLQGNYKDEEVEQLIQVALLCTQSSPMERPKMSEVVRMLEGDGLAERWEEWQKEEMFRQDFNYPTHHPAVSGWIIGDSTSQIENEYPSGPR

Continued, molecule first:

Molecule: BSK1-nYFP (from UniProt Q944A7 1-512) (enzyme)
binding [1]: binds

Molecule: BSK1-HA (from UniProt Q944A7 1-512) (enzyme)
binding [2]: binds
binding [3]: binds

Molecule: BSU1-nYFP (from UniProt Q9LR78 1-793) (enzyme)
binding [1]: binds

Molecule: BSK1-cYFP (from UniProt Q944A7 1-512) (enzyme)
binding [5]: binds

Molecule: BZR1-cYFP (from UniProt Q8S307 1-336)
binding [4]: binds weakly

B1: TTL3-HA (protein, UniProt Q9SIN1 1-691)
chain: MSHSRRLSLEPAIDSITGRFRDLQRNDDDVNKPDFRELDLGSPVSTLMPRGSASSSAAATPTSSSGSSGSASGKPSVSSQMAKRLDDAYKSHSGELSSPGSGMPTTTRILKPGHRRSSSTGTPLIFSGSSFTSATSHTSPQGGGSGATSAVSPNTGVLPAGNICPSGRILKTGMASRTSSRTETLCTGTGNYGHGNVVRSGGGGGTSGKAVRVAENGENPEELKRMGNDMYRRGSFSEALSLYDRAILISPGNAAYRSNRAAALTALRRLGEAVKECLEAVRIDPSYSRAHQRLASLYLRLGEAENARRHICFSGQCPDQADLQRLQTLEKHLRRCWEARKIGDWKTAIKETDAAIANGADSSPQLVACKAEAFLRLKQIEDSDFCVSCIPRLDHHYHSQPQVKLFGMVVEAYVLCIQAQVDMALGRFENAVVKAERAAMLDQTNPEVVSVLNNVKMVVRARTRGNELFSSGRFSEACVAYGDGLKQDDSNSVLYCNRAACWYKLGLWEKSVEDCNHALKSQPSYIKALLRRAASYGKLGRWEDAVKDYEFLRRELPGDSEVAESLERAKTVLMNRSQESKSLGFNNEVEAVSTLDKFKKSVALPGVSVFHFKSSSNRQCEEISPFINTLCLRYPLVHFFMVDVEESMALAKAESIRKVPTFKMYKNGDKVKEMVCPSHQFLEDSIKHFLL
binding [7]: binds

B3: BAK1 (co-IP construct) (receptor, UniProt Q94F62 26-615)
chain: NAEGDALSALKNSLADPNKVLQSWDATLVTPCTWFHVTCNSDNSVTRVDLGNANLSGQLVMQLGQLPNLQYLELYSNNITGTIPEQLGNLTELVSLDLYLNNLSGPIPSTLGRLKKLRFLRLNNNSLSGEIPRSLTAVLTLQVLDLSNNPLTGDIPVNGSFSLFTPISFANTKLTPLPASPPPPISPTPPSPAGSNRITGAIAGGVAAGAALLFAVPAIALAWWRRKKPQDHFFDVPAEEDPEVHLGQLKRFSLRELQVASDNFSNKNILGRGGFGKVYKGRLADGTLVAVKRLKEERTQGGELQFQTEVEMISMAVHRNLLRLRGFCMTPTERLLVYPYMANGSVASCLRERPESQPPLDWPKRQRIALGSARGLAYLHDHCDPKIIHRDVKAANILLDEEFEAVVGDFGLAKLMDYKDTHVTTAVRGTIGHIAPEYLSTGKSSEKTDVFGYGVMLLELITGQRAFDLARLANDDDVMLLDWVKGLLKEKKLEALVDVDLQGNYKDEEVEQLIQVALLCTQSSPMERPKMSEVVRMLEGDGLAERWEEWQKEEMFRQDFNYPTHHPAVSGWIIGDSTSQIENEYPSGPR
binding [9]: no binding

B5: TTL3ΔN2 (yeast two-hybrid fusion) (domain or fragment, UniProt Q9SIN1 371-691)
chain: AEAFLRLKQIEDSDFCVSCIPRLDHHYHSQPQVKLFGMVVEAYVLCIQAQVDMALGRFENAVVKAERAAMLDQTNPEVVSVLNNVKMVVRARTRGNELFSSGRFSEACVAYGDGLKQDDSNSVLYCNRAACWYKLGLWEKSVEDCNHALKSQPSYIKALLRRAASYGKLGRWEDAVKDYEFLRRELPGDSEVAESLERAKTVLMNRSQESKSLGFNNEVEAVSTLDKFKKSVALPGVSVFHFKSSSNRQCEEISPFINTLCLRYPLVHFFMVDVEESMALAKAESIRKVPTFKMYKNGDKVKEMVCPSHQFLEDSIKHFLL
binding [8]: binds

Source: paper doi:10.1101/351056
